PubChem BioAssay AID1159617 – Peter MacCallum Cancer Centre | 2016

- Screen: 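How silencing candidate migration genes alters the shape of endothelial cells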 (tertiary re-screen of migration hits)
- System: human HMBEC blood microvascular and HDLEC lymphatic endothelial cells
- Reagents: siRNA pool against human genes, 40 nM
- Measured: 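Actin stained with phalloidin and imaged; area and length measured per cell, averaged across replicates and expressed as robust z-scores over the whole screen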
- Reading the numbers: cell area z-score, HMBEC and cell area z-score, HDLEC: higher = larger cells; cell length z-score, HMBEC and cell length z-score, HDLEC: higher = longer cells
This is a random part of 153 reagents tested. 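Values are robust z-scores scaled across the full screen; higher values mean larger or longer cells.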 Not stated in the record: the time to read-out.

gene knocked down,PubChem SID,"cell area z-score, HMBEC","cell area z-score, HDLEC","cell length z-score, HMBEC","cell length z-score, HDLEC"
SCGB1C1 (GeneID 147199),SID313054038,-0.44,-0.72,-0.24,-0.43
PPP6R1 (GeneID 22870),SID313053984,0.26,-0.52,-0.59,-1.45
OR10H4 (GeneID 126541),SID313054033,-0.4,-1.12,-0.28,-1.17
PGBD5 (GeneID 79605),SID313054022,-0.39,-0.6,-0.2,-1.18
EFNA3 (GeneID 1944),SID313053924,-0.44,-0.34,-0.5,-0.62
CLCN7 (GeneID 1186),SID313053917,1.05,1.78,1.25,1.93
APOBEC3D (GeneID 140564),SID313054035,-0.01,-0.51,0.48,-0.36
RET (GeneID 5979),SID313053952,-0.32,-0.01,-0.28,-0.2
BORCS6 (GeneID 54785),SID313054006,2.07,0.55,2.97,0.87
TMIGD2 (GeneID 126259),SID313054031,-0.4,1.61,-0.1,1.72
TTLL3 (GeneID 26140),SID313053994,-0.07,-0.37,-0.28,0.18
GPR84 (GeneID 53831),SID313054002,-0.12,-0.29,0.27,0.57
DOT1L (GeneID 84444),SID313054024,-0.14,0.08,-0.28,-0.06
MOB3A (GeneID 126308),SID313054032,0.4,1.08,0.86,1.43
AOC3 (GeneID 8639),SID313053965,-1,-0.3,-1.15,0.27
KRT80 (GeneID 144501),SID313054036,-0.28,-0.21,-0.24,-0.07
CDC42 (GeneID 998),SID313053915,-0.97,-0.15,-0.86,0
BDH2 (GeneID 56898),SID313054011,-0.05,0.19,-0.12,0.04
SDCCAG8 (GeneID 10806),SID313053981,1.26,1.99,0.79,1.79
USP25 (GeneID 29761),SID313053999,0.58,0.21,0.59,0.2
CEPT1 (GeneID 10390),SID313053978,1.38,1.92,0.87,1.38
PLPP3 (GeneID 8613),SID313053964,-1.25,-1.55,-1.6,-1.79
MTARC1 (GeneID 64757),SID313054019,-1.17,0.11,-1.05,-0.21
FBXO4 (GeneID 26272),SID313053995,-0.86,-0.39,-0.64,-0.21
STRC (GeneID 161497),SID313054044,0.04,0.62,-0.08,0.56
ANGPT2 (GeneID 285),SID313053904,-0.04,0.85,-0.2,1.57
CHST8 (GeneID 64377),SID313054016,0.65,0.31,0.51,-0.04
MYL7 (GeneID 58498),SID313054013,-0.68,0.37,-0.53,0.17
TNFRSF8 (GeneID 943),SID313053914,0.03,0.89,0.58,0.75
PI4KB (GeneID 5298),SID313053944,-0.57,-0.75,-0.51,-0.83
SPICE1 (GeneID 152185),SID313054041,0.54,0.54,0.3,0.19
PRR21 (GeneID 643905),SID318171902,-1.69,-1.89,-1.73,-1.54
GNAS (GeneID 2778),SID313053930,0.25,-0.5,0.43,0.02
FLT3 (GeneID 2322),SID313053926,0.31,-0.49,0.24,-0.67
FLCN (GeneID 201163),SID313054045,1.75,0.66,2.5,1.02
JHY (GeneID 79864),SID313054023,0.39,0.14,0.17,0.03

Next part (3 carried over from the part before).
gene knocked down,PubChem SID,"cell area z-score, HMBEC","cell area z-score, HDLEC","cell length z-score, HMBEC","cell length z-score, HDLEC"
FLT3 (GeneID 2322),SID313053926,0.31,-0.49,0.24,-0.67
FLCN (GeneID 201163),SID313054045,1.75,0.66,2.5,1.02
JHY (GeneID 79864),SID313054023,0.39,0.14,0.17,0.03
ACP2 (GeneID 53),SID313053903,1.03,0.3,2.23,0.57
PIK3AP1 (GeneID 118788),SID313054029,0.55,1.16,0.6,0.32
C5AR1 (GeneID 728),SID313053911,-0.2,-1.2,-0.24,-1.35
NUDT2 (GeneID 318),SID313053905,-0.45,-0.71,-0.66,-1.1
AKR1C6P (GeneID 389932),SID313054052,-0.75,-0.87,-1.13,-0.56
ABCC3 (GeneID 8714),SID313053966,0.36,-0.91,0.32,-0.58
SLC22A25 (GeneID 387601),SID313054050,0.31,-0.35,-0.08,-0.38
APOA2 (GeneID 336),SID313053906,0.84,1.13,0.85,1.12
RNASE7 (GeneID 84659),SID313054025,-0.14,0.04,-0.19,-0.1
FBXW11 (GeneID 23291),SID313053987,-0.22,0.38,-0.31,0.29
SF3B1 (GeneID 23451),SID313053988,-1.12,-0.49,-1.09,-0.98
CARD10 (GeneID 29775),SID313054000,-0.07,0.67,0.22,0.69
LGALS1 (GeneID 3956),SID313053936,0.46,0.29,0.14,0.32
LIMK1 (GeneID 3984),SID313053937,-1.24,-0.53,-1.23,-0.35
FMC1 (GeneID 154791),SID313054043,0.6,1.03,0.44,0.94
ITPKA (GeneID 3706),SID313053933,-1.58,-0.21,-1.68,-0.1
CCS (GeneID 9973),SID313053974,-0.27,-0.15,0.04,-0.07
GBA1 (GeneID 2629),SID313053927,-1.17,0.01,-1.44,0.08
ETNK2 (GeneID 55224),SID313054007,0.69,0.83,0.85,1.39
CRCT1 (GeneID 54544),SID313054004,-0.35,-0.98,-0.21,-0.63
PTH2 (GeneID 113091),SID313054028,-0.85,-1.2,-1.06,-1.51
